According to patent US8653283B2, “Anticancer agents” (The Regents of The University of California, priority 2009, dated 2014):

Tested on: HCT-116 cells
Test: Cellular uptake and subcellular localization by fluorescence microscopy
Assay type: cell-based, human
Settings: 10 μM
Protocol: HCT-116 cells (ATCC CCL-247) were cultured in Dulbecco's modification of Eagle's medium (DMEM) with 4.5 g L^−1 glucose, […], and 5% heat inactivated fetal calf serum (FCS) in glass-bottom dishes. Fluorescent images were collected on a Leica (Wetzlar, Germany) DMI6000 inverted confocal microscope with a Yokogawa (Tokyo, Japan) spinning disk confocal head, Orca ER High Resolution B&W Cooled CCD camera (6.45 μm/pixel at 1×) (Hamamatsu, Sewickley, Pa.), Plan Apochromat 40×/1.25 na and 63×/1.4 na objective, and a Melles Griot (Carlsbad, Calif.) Argon/Krypton 100 mW air-cooled laser for 488, 568, and 647 nm excitations. Confocal z-stacks were acquired in all experiments. Co-staining was conducted by treating cells exposed to 1 to either Syto 60 (nucleus), LysoTracker Red DND-99 (lysosomes), BODIPY TR glibenclamide (endoplasmic reticulum), or MitoTracker Red 580 (mitochondria) for 20 min and washing the cells three times with media and collecting images in two colors.
Cellular uptake and localization of 1 in HCT-116 tumor cells was then evaluated using fluorescence microscopy. Fortunately, spirohexenolide A (1) was natively fluorescent, with an excitation maximum λmax=435 nm and emission maximum at λmax=466 nm (FIGS. 14 and 15). HCT-116 cells were treated with 10 μM 1 in DMEM containing 10% FCS, 100 U/mL penicillin-G, and 100 μg/mL streptomycin and analyzed by fluorescence microscopy. […] Within 6-12 h, fluorescence from 1 concentrated within vesicles surrounding the nucleus and remained in these structures (FIG. 4b). This staining could not be washed from the cells by repetitive incubation with media and remained consistent thereafter (FIG. 4c).
HCT-116 cells (ATCC CCL-247) were cultured in Dulbecco's modification of Eagle's medium (DMEM) with 4.5 g L^−1 glucose, 4.5 g L^−1 L-glutamine and 5% heat inactivated fetal calf serum (FCS) in glass-bottom dishes. […] Image in FIG. 7c was collected with fluorescence from DNA by staining with SYTO-60 (excitation at 647 nm and emission at 692±40 nm), actin with FITC-phalloidin (excitation at 488 nm and emission at 524±40 nm), and microtubules with BODIPY 564/570 paclitaxel (excitation at 568 nm and emission at 593±40 nm).
The cellular uptake of localization of 1 in HCT-116 tumor cells was then evaluated using fluorescence microscopy. […] HCT-116 cells were treated with 10 μM 1 in DMEM containing 10% FCS, 100 U/mL penicillin-G and 100 μg/mL streptomycin and analyzed by fluorescence microscopy. […]
The uptake and subcellular localization of probes 3 and 4 to spirohexenolide A (1) in HCT-116 cells were then compared. […] HCT-116 cells were treated with 10 μM 1 in DMEM containing 10% FCS, 100 U/mL penicillin-G, and 100 μg/mL streptomycin and analyzed by fluorescence microscopy. […]

## spirohexenolide A
  cellular uptake: readily uptaken
Listed as 1
  subcellular localization: localization occurred in the lysosomes
Listed as compound 1
  subcellular localization: localizes within the lysosomes
Listed as spirohexenolide A (1)
  subcellular localization: localized with punctuate distribution in a subcellular organelle between the Golgi apparatus and the nucleus
